Reference: PMC4599800
Results are given in words; binding and its absence hold for the method and conditions named. In cells and extracts the contact can be indirect. Some results given as binding are weak or reduced against the parent protein; the word gives no strength.

Amino acid sequences for entries named in this document (tags omitted).
UniProt O35099: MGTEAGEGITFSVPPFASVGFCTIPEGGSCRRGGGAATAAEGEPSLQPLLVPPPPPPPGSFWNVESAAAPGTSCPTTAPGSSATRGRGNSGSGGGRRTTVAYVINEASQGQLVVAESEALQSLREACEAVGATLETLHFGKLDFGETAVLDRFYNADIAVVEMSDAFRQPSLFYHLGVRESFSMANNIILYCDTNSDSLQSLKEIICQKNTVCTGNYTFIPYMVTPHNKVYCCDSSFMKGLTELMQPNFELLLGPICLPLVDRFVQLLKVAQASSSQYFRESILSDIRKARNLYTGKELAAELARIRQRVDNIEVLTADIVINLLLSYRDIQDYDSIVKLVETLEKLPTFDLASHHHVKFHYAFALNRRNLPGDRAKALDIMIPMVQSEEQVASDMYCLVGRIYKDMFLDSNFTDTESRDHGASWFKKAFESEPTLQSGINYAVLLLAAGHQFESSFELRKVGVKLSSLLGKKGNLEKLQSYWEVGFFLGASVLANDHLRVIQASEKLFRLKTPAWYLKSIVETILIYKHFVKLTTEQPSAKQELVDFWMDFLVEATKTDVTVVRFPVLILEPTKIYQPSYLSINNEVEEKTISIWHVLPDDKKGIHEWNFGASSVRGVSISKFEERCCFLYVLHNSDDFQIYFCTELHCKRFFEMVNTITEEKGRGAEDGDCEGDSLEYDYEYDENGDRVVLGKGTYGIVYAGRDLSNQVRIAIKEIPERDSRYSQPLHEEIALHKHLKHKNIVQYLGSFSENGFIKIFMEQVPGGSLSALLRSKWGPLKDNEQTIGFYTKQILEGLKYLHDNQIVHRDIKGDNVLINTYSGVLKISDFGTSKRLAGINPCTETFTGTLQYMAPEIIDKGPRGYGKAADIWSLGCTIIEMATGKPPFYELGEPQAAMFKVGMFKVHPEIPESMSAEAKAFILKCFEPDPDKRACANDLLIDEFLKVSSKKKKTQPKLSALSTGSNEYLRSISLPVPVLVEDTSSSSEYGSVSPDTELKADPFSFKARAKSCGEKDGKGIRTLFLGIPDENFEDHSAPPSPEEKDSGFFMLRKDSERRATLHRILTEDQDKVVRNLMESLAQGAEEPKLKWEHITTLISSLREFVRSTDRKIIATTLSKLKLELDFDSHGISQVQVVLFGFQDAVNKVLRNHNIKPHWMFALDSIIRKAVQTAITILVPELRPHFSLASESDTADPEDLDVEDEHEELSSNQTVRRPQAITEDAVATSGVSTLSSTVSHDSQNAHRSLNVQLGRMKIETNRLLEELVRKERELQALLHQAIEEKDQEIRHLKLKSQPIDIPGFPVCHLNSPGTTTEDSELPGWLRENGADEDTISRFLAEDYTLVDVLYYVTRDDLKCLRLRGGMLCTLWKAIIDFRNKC

Target: apoptosis signal-regulating kinase 1 (mouse (endogenous in mouse brain)) (UniProt O35099)
Experiment: co-IP; ASK1 immunoprecipitated with rabbit polyclonal ASK1 antibody from 200-400 ug brain lysate protein (pooled from three mice) of klkl, EFmKL48 and wild-type mice; IP buffer 20 mM Tris pH 7.5, 150 mM NaCl, 2 mM EDTA, 1 mM EGTA, 4 °C; protein A agarose; co-precipitated Trx shown by Western blot

B1: thioredoxin (protein, UniProt P10639 1-105)
chain: MVKLIESKEAFQEALAAAGDKLVVVDFSATWCGPCKMIKPFFHSLCDKYSNVVFLEVDVDDCQDVAADCEVKCMPTFQFYKKGQKVGEFSGANKEKLEASITEYA
  binding: binds
